Results are given in words; binding and its absence hold for the method and conditions named. In cells and extracts the contact can be indirect. Some entries that bind do so weakly or less than the wild type.

Protein sequences, listed by entry. Tags and fused reporters are not part of them. Residues count along the entry.
UniProt O00411, residues 42-1230: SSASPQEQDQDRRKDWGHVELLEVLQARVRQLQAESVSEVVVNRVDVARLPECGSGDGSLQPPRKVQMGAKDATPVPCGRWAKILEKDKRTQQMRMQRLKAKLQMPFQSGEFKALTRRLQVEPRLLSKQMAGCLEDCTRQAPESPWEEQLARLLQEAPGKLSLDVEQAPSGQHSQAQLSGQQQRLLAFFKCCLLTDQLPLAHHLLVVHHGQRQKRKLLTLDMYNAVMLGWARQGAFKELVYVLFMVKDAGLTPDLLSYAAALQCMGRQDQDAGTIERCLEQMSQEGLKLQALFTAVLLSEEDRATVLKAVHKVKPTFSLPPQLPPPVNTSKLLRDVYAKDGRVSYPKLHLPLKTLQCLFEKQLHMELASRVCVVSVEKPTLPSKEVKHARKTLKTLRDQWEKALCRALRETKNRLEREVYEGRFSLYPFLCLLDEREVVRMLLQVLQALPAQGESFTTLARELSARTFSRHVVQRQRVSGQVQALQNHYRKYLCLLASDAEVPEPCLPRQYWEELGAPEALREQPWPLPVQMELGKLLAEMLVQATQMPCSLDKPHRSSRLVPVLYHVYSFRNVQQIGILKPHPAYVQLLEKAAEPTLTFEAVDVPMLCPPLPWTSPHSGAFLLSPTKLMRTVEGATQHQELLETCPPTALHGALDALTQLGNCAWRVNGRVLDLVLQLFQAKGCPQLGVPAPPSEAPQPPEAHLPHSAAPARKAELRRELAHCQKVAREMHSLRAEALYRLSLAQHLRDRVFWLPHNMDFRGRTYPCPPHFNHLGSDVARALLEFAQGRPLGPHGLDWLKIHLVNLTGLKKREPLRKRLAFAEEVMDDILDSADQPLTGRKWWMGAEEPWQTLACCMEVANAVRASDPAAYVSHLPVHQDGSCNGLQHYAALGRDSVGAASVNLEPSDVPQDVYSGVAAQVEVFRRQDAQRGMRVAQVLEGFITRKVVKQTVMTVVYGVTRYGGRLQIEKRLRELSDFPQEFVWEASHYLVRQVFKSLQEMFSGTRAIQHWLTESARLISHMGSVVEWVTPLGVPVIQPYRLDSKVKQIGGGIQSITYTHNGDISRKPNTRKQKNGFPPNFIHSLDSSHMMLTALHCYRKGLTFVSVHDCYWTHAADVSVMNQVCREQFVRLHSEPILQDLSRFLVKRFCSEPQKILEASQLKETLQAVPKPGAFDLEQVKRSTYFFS

For assay [1], the target named is T1, dihydrolipoyl transacetylase (DLAT) (human (endogenous in A549^cisR)) (UniProt P10515).
T1 sequence: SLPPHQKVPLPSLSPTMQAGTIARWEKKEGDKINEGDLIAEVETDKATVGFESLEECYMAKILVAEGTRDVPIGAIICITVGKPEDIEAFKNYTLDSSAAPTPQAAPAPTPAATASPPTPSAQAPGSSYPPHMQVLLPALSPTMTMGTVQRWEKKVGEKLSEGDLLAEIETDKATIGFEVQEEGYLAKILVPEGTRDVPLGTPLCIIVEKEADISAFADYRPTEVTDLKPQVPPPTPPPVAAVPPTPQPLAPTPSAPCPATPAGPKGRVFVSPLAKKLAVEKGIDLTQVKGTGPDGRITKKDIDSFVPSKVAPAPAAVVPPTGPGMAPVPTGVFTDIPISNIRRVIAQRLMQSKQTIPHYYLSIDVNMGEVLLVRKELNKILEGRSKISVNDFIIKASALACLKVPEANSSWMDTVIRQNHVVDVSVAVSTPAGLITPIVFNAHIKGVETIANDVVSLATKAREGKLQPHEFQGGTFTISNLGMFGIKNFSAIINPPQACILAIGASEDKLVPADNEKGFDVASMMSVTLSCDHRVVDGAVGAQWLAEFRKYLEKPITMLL
The assay is described as follows: co-IP; co-immunoprecipitation showing candidate interactions with DLAT (Fig. 4b, Supplementary Fig. 4a), immunoblot. On the technique in general: In western blotting, separated proteins are transferred to a membrane and probed.

Assay [2] addresses T2, methylenetetrahydrofolate dehydrogenase 2 (MTHFD2) (human (endogenous in A549^cisR)) (UniProt P13995).
T2 sequence: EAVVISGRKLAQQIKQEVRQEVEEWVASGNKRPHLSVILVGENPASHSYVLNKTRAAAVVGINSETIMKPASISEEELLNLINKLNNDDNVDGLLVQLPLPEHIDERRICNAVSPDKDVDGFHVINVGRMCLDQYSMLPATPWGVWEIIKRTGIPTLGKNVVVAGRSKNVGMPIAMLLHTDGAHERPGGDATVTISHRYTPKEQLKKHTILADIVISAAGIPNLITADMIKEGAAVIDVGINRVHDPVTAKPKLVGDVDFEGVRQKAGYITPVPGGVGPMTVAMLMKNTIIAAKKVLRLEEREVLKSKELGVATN
In words: co-IP; MTHFD2 co-immunoprecipitation of endogenous proteins in cisplatin-treated cancer cells (Fig. 4g).

Turning to “RNA polymerase mitochondrial (POLRMT) (from UniProt O00411 42-1230) (enzyme)”, the binding entry in assay [1] is on record as “binds”.

B1: dihydrolipoyl transacetylase (DLAT) (enzyme, UniProt P10515 87-647)
chain: SLPPHQKVPLPSLSPTMQAGTIARWEKKEGDKINEGDLIAEVETDKATVGFESLEECYMAKILVAEGTRDVPIGAIICITVGKPEDIEAFKNYTLDSSAAPTPQAAPAPTPAATASPPTPSAQAPGSSYPPHMQVLLPALSPTMTMGTVQRWEKKVGEKLSEGDLLAEIETDKATIGFEVQEEGYLAKILVPEGTRDVPLGTPLCIIVEKEADISAFADYRPTEVTDLKPQVPPPTPPPVAAVPPTPQPLAPTPSAPCPATPAGPKGRVFVSPLAKKLAVEKGIDLTQVKGTGPDGRITKKDIDSFVPSKVAPAPAAVVPPTGPGMAPVPTGVFTDIPISNIRRVIAQRLMQSKQTIPHYYLSIDVNMGEVLLVRKELNKILEGRSKISVNDFIIKASALACLKVPEANSSWMDTVIRQNHVVDVSVAVSTPAGLITPIVFNAHIKGVETIANDVVSLATKAREGKLQPHEFQGGTFTISNLGMFGIKNFSAIINPPQACILAIGASEDKLVPADNEKGFDVASMMSVTLSCDHRVVDGAVGAQWLAEFRKYLEKPITMLL
Consider B1, for which the binding entry in assay [2] was “binds”.

B2: peroxiredoxin 3 (PRDX3) (enzyme, UniProt P30048 62-256)
chain: APAVTQHAPYFKGTAVVNGEFKDLSLDDFKGKYLVLFFYPLDFTFVCPTEIVAFSDKANEFHDVNCEVVAVSVDSHFSHLAWINTPRKNGGLGHMNIALLSDLTKQISRDYGVLLEGSGLALRGLFIIDPNGVIKHLSVNDLPVGRSVEETLRLVKAFQYVETHGEVCPANWTPDSPTIKPSPAASKEYFQKVNQ
B2: the binding entry in assay [1] is recorded as “binds”.

B3: methylenetetrahydrofolate dehydrogenase 2 (MTHFD2) (enzyme, UniProt P13995 36-350)
chain: EAVVISGRKLAQQIKQEVRQEVEEWVASGNKRPHLSVILVGENPASHSYVLNKTRAAAVVGINSETIMKPASISEEELLNLINKLNNDDNVDGLLVQLPLPEHIDERRICNAVSPDKDVDGFHVINVGRMCLDQYSMLPATPWGVWEIIKRTGIPTLGKNVVVAGRSKNVGMPIAMLLHTDGAHERPGGDATVTISHRYTPKEQLKKHTILADIVISAAGIPNLITADMIKEGAAVIDVGINRVHDPVTAKPKLVGDVDFEGVRQKAGYITPVPGGVGPMTVAMLMKNTIIAAKKVLRLEEREVLKSKELGVATN
For B3, the binding result in assay [1] is reported as “binds”.

The values are drawn from paper PMC12508156, “Non-canonical dihydrolipoyl transacetylase promotes chemotherapy resistance via mitochondrial tetrahydrofolate signaling” (Nature Communications, 2025).
